Data on two substances can be found in PMC11514270.

Chains of the proteins cited; added tags and fusions are not shown. Residues count along the entry.
UniProt Q9H0J9: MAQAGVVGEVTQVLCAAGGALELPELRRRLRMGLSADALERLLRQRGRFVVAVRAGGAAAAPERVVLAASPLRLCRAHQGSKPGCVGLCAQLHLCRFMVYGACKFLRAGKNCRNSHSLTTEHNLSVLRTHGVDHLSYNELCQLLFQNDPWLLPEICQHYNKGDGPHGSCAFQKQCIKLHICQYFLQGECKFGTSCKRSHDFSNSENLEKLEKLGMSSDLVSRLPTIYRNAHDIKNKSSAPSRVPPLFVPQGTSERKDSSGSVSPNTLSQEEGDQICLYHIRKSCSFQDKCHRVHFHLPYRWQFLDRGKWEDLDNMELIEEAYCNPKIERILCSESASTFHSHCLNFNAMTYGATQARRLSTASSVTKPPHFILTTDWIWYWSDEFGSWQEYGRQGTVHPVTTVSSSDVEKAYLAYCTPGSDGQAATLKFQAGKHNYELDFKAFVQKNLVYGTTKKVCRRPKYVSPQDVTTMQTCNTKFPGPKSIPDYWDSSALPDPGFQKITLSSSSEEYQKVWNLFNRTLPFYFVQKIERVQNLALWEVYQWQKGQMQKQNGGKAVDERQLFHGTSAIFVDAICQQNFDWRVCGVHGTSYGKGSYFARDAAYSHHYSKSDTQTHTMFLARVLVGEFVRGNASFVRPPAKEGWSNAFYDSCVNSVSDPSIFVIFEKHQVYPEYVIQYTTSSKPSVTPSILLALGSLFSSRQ
UniProt P05161, residues 1-157: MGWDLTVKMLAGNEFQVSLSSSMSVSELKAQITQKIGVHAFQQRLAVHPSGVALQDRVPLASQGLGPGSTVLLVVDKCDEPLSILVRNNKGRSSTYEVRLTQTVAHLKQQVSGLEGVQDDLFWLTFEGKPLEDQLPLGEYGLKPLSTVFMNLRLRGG

No constants are given. Whether binding was seen depends on the method and setting. Binding seen in cells or lysates may run through a third protein. Some results given as binding are weak or reduced against the parent protein; the word gives no strength.

The target in assay [1] is Poly (ADP-ribose) polymerase family member 12 (PARP12) (human (endogenous in primary human chondrocytes)) (UniProt Q9H0J9). Nature of the assay: co-IP; endogenous proteins of PHC lysate; IP of PARP12, immunoblot for ISG15 and MFN1/2 (antibodies in Table S3). (A western blot detects proteins with antibodies after separation by electrophoresis.)
The target in assay [2] is Interferon-stimulated gene 15 (ISG15) (human (endogenous in primary human chondrocytes)) (UniProt P05161). Briefly: co-IP; endogenous proteins of PHC lysate; reverse IP with antibodies to ISG15, MFN1 or MFN2, immunoblot for PARP12 (antibodies in Table S3).

With “Interferon-stimulated gene 15 (ISG15) (from UniProt P05161 1-157)”, in assay [1], the binding entry is on record as “binds”.
Take “Poly (ADP-ribose) polymerase family member 12 (PARP12) (from UniProt Q9H0J9 1-701)”: in assay [2], the binding entry was “binds”.
